Experimental findings from article doi:10.1101/2024.05.13.593894 (bioRxiv, 2024) are described below.

Chains of the proteins cited; added tags and fusions are not shown. Residues count along the entry.
UniProt P19793, residues 98-462: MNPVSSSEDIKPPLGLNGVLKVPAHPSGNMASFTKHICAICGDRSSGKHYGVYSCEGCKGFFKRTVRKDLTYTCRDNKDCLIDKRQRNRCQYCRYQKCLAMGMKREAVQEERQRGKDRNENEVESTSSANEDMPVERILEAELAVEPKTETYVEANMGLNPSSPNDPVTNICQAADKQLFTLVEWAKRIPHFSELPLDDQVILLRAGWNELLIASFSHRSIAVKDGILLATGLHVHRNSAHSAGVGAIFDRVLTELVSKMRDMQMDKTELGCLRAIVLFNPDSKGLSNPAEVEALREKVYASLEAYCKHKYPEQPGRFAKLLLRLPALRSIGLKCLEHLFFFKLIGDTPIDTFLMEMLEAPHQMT

Results are given in words; binding and its absence hold for the method and conditions named. Some entries that bind do so weakly or less than the wild type.

In this assay the target is RXRα_(98-462) (human) (UniProt P19793). The experiment in a line: cross-linking.

B1: FXR_(120-486) (domain or fragment, UniProt Q96RI1 120-486)
chain: KKPRMGASAGRIKGDELCVVCGDRASGYHYNALTCEGCKGFFRRSITKNAVYKCKNGGNCVMDMYMRRKCQECRLRKCKEMGMLAECMYTGLLTEIQCKSKRLRKNVKQHADQTVNEDSEGRDLRQVTSTTKSCREKTELTPDQQTLLHFIMDSYNKQRMPQEITNKILKEEFSAEENFLILTEMATNHVQVLVEFTKKLPGFQTLDHEDQIALLKGSAVEAMFLRSAEIFNKKLPSGHSDLLEERIRNSGISDEYITPMFSFYKSIGELKMTQEEYALLTAIVILSPDRQYIKDREAVEKLQEPLLDVLQKLCKIHQPENPQHFACLLGRLTELRTFNHHHAEMLMSWRVNDHKFTPLLCEIWDVQ
As to B1, the binding result is “binds”.
